The target in the assay is T1, O-GlcNAc transferase (OGT) (human (endogenous in Hep3B and Huh7)) (UniProt O15294).
T1 sequence: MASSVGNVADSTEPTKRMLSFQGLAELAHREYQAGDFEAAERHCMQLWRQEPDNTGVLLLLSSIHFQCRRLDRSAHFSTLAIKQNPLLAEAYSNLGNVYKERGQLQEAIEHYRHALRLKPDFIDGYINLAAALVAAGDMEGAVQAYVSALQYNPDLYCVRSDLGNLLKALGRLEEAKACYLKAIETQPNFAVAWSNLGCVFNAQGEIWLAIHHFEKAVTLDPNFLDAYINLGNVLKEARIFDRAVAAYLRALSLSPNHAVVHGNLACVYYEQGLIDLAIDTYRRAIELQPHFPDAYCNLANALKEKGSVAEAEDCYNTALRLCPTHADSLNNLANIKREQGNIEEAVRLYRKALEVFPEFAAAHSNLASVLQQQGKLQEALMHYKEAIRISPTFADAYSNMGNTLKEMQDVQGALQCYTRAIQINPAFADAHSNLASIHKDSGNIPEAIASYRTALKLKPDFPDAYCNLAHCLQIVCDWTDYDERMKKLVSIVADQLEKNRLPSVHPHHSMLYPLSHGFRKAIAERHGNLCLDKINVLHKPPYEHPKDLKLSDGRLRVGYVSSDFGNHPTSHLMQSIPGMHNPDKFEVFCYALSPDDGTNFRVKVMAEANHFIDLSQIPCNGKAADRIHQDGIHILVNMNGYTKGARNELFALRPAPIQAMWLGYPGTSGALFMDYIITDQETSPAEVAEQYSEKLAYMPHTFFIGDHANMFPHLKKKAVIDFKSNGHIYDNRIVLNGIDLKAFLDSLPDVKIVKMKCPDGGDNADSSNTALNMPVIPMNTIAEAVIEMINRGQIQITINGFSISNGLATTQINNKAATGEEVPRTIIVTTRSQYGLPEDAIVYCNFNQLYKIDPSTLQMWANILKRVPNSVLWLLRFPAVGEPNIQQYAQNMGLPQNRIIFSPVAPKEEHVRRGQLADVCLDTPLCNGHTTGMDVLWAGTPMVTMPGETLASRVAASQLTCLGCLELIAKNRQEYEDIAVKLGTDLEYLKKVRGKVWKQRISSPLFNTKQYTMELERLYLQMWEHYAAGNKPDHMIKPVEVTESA
Briefly: co-IP; endogenous proteins in HCC cell lysates; antibodies (anti-RALY, anti-OGT, anti-TRIM27 or IgG) on rProtein A/G magnetic beads, lysate overnight at 4°C, three washes, western blot; for RALY-TRIM27 also cells with or without TMG. On the technique in general: In western blotting, separated proteins are transferred to a membrane and probed.

Chains of the proteins cited; added tags and fusions are not shown.
UniProt Q9UKM9: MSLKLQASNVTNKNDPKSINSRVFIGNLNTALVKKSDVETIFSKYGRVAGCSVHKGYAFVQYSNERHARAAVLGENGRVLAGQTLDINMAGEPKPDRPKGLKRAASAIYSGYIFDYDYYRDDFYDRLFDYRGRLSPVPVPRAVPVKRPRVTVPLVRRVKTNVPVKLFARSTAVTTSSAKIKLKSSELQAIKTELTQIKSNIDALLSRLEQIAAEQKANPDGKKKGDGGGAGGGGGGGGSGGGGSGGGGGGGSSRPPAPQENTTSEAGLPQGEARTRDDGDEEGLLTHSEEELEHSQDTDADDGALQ

Results are given in words; binding and its absence hold for the method and conditions named. In cells and extracts the contact can be indirect. Some binding calls cover weakened binding; strength is not graded here.

Turning to RALY (from UniProt Q9UKM9 1-306), the binding entry was “binds”.
